Test results from patent US20240115720A1, “ANTIBODY-PYRROLOBENZODIAZEPINE DERIVATIVE CONJUGATE” (MEMORIAL SLOAN KETTERING CANCER CENTER, priority 2021, published 2024).
Results are given in words; binding and its absence hold for the method and conditions named. Some binding calls cover weakened binding; strength is not graded here.

Amino acid sequences for entries named in this document (tags omitted). A change or cut given only in a name is not applied to a line headed by its entry.
UniProt Q9NYJ7: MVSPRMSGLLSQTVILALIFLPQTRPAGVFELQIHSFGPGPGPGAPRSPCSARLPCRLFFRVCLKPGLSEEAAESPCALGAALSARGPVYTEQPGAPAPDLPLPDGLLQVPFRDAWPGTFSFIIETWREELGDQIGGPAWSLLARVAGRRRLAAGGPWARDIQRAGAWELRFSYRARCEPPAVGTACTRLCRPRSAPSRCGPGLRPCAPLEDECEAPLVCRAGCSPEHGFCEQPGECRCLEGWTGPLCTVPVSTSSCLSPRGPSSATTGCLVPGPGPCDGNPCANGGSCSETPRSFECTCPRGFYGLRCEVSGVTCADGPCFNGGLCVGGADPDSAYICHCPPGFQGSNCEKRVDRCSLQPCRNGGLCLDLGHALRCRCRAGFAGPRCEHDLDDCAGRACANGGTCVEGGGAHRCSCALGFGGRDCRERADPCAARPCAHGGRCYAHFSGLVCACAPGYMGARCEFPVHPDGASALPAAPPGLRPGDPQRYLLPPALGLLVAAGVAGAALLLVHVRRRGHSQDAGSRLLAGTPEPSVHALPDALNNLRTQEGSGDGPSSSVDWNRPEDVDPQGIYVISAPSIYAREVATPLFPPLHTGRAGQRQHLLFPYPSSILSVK

Molecular target: Histidine-tagged DLL3 antigen (DLL3-His) (Homo sapiens (Human)) (UniProt Q9NYJ7)
Test: Carterra array SPR epitope binning, mAb immobilized, DLL3-His injected

binding: binds
B1: 2-C8-A (antibody, V domains shown)
VH: EVQLVESGGGLVQPGGSQRLSCAASGFTFSSYWMNWVRQAPGKGLEWVANIKEDGSEKYYVDSVKGRFTISRDNAKNSLYLQMNSLRAEDTAVYYCARDPGWAPFDYWGQGTLVTVSS
VL: DIQMSQSPSSLSASVGDRVTITCRASQGISNYLAWFQQKPGKAPKSLIYAASSLQSGVPSKFSGSGSGTDFTLAISSLQPEDFATYYCQQYNSFPYTFGQGTTLEIK
